{"sequences": {"note": "By UniProt entry, the sequences of proteins in these tests, tags left out. Residues count along the entry.", "UniProt P08592, residues 18-770": "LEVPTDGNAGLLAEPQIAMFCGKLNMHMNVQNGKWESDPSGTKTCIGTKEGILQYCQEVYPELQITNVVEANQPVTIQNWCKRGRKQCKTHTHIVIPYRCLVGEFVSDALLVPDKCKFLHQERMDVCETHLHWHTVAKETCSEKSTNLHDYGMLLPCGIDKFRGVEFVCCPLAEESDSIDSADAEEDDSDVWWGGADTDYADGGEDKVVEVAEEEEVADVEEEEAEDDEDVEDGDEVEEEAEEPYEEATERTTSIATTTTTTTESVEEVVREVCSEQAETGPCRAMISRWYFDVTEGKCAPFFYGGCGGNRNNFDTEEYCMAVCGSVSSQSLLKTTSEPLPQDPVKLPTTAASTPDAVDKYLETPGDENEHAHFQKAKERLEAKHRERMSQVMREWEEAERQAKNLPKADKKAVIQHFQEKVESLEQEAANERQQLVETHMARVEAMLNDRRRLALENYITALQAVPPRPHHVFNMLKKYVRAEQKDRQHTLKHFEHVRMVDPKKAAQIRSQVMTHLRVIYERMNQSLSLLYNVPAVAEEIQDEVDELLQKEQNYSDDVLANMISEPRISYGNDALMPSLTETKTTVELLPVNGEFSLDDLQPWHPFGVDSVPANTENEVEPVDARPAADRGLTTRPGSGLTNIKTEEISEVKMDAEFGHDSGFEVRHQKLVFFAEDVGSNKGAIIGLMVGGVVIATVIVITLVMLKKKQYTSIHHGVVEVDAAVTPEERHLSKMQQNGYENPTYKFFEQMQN", "UniProt P15943, residues 32-765": "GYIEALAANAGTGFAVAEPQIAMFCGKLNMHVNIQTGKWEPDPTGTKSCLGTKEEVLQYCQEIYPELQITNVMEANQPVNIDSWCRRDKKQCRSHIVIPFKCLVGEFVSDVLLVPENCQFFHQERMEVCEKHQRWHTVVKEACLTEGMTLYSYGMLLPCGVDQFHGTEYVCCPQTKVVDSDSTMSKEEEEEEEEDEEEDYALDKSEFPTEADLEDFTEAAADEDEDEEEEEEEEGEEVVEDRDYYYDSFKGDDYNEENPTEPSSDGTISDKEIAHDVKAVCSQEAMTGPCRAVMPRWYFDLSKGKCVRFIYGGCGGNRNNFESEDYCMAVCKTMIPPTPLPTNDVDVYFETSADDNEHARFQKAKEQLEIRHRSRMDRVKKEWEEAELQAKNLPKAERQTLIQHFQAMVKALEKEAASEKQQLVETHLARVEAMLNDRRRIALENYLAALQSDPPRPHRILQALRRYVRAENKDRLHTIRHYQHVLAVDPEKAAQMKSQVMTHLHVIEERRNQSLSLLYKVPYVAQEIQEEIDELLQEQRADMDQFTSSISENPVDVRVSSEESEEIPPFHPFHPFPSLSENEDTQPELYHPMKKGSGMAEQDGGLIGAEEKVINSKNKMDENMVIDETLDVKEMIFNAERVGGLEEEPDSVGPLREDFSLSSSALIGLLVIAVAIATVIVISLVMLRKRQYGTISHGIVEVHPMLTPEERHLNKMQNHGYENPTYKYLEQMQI"}, "source": "paper PMC3628100", "key": {"[1]": {"biological_target": "T1, SCAP (SREBP-cleavage-activating protein), endogenous in rat cortical neurons (rat (endogenous in primary cortical neurons)) (UniProt A2RRU4)", "T1 sequence": "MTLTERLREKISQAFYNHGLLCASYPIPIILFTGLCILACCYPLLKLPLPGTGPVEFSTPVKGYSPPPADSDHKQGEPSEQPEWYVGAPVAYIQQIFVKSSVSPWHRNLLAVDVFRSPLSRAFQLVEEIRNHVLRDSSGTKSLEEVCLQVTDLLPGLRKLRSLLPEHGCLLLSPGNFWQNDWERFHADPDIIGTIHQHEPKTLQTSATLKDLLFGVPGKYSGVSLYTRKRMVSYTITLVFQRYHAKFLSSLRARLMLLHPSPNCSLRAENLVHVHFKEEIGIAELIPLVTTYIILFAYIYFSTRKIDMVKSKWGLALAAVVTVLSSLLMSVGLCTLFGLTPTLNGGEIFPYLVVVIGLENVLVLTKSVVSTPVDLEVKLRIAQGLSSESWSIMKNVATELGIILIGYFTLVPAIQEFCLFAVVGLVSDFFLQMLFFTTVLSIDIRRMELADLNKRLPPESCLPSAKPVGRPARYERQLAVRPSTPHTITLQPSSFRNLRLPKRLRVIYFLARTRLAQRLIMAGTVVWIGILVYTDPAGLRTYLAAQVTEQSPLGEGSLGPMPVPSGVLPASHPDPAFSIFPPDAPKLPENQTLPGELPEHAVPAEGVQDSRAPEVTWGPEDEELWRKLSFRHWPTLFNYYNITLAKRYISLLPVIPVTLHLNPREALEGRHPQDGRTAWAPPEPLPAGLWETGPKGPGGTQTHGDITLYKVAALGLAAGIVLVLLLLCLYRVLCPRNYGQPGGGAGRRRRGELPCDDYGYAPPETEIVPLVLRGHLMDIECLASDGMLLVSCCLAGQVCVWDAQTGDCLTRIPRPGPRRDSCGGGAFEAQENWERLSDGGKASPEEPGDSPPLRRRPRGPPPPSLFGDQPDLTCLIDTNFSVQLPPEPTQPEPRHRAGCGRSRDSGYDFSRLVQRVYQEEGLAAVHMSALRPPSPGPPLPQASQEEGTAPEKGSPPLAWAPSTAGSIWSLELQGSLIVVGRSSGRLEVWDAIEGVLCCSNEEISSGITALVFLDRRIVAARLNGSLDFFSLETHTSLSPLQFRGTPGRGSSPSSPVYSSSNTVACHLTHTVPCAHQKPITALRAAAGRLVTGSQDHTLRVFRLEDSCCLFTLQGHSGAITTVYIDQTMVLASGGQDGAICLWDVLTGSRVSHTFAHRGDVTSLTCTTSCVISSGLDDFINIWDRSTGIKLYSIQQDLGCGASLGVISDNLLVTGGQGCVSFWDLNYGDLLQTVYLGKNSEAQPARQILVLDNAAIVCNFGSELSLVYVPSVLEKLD", "experiment": "co-IP; lysates of primary rat cortical neurons, precipitated with 2 µg anti-SCAP K19 antibody overnight at 4°C, protein A-sepharose; 25 mM Tris pH 6.8, 0.5% Triton X-100, 0.5% Nonidet P-40; Western blot"}, "[2]": {"biological_target": "T2, SREBP1 (sterol regulatory element binding protein 1), endogenous in rat cortical neurons (rat (endogenous in primary cortical neurons)) (UniProt P56720)", "T2 sequence": "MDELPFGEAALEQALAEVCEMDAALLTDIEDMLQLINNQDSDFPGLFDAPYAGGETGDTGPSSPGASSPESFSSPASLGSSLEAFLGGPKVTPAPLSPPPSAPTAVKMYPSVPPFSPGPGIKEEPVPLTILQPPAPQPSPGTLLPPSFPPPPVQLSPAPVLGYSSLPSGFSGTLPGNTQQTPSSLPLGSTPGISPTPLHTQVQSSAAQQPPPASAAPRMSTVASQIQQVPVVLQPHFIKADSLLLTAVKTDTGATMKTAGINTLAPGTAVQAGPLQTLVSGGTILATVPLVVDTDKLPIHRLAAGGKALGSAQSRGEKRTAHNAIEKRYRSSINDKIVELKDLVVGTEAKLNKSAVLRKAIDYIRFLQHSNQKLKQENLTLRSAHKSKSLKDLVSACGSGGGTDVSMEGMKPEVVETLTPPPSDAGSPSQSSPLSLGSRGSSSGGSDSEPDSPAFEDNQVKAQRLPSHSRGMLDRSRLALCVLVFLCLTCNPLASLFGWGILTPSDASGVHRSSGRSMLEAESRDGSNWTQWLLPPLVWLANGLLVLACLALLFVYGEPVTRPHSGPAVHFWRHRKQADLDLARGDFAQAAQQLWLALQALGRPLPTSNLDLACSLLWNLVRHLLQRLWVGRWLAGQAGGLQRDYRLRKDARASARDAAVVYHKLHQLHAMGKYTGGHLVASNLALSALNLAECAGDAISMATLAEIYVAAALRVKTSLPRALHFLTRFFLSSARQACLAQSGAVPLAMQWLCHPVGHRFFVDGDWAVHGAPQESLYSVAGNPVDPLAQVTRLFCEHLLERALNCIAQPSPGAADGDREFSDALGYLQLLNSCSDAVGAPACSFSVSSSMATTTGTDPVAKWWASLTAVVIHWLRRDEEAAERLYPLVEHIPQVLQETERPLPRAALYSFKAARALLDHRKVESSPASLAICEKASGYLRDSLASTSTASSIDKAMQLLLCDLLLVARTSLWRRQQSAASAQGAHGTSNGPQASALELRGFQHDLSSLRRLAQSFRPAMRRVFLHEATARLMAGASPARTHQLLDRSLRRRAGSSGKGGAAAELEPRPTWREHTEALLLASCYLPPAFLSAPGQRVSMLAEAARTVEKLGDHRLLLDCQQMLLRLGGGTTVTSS", "experiment": "co-IP; endogenous proteins of neurons, no APP overexpression (Supporting Information Fig 6); precipitating antibody not given"}, "[3]": {"biological_target": "T2, SREBP1 (sterol regulatory element binding protein 1), endogenous in rat cortical neurons (rat (endogenous in primary cortical neurons))", "experiment": "co-IP; Supporting Information Fig 7; cells and precipitating antibody not given"}}, "note": "These are yes or no findings as the source states them, for the method shown. Binding seen in cells or lysates may run through a third protein. Some entries that bind do so weakly or less than the wild type."}
{"substance": "wild-type human APP695 (amyloid precursor protein), expressed in rat cortical neurons (from UniProt P05067-4 18-695)", "values": [{"measurement": "binding", "setting": "[1]", "value": "binds"}]}
{"substance": "endogenous neuronal APP (from UniProt P08592 18-770)", "values": [{"measurement": "binding", "setting": "[2]", "value": "binds"}]}
{"substance": "APLP2 (APP-like protein 2) (from UniProt P15943 32-765)", "values": [{"measurement": "binding", "setting": "[3]", "value": "binds"}]}
